US10905665B2, “Chemical modulators of signaling pathways and therapeutic use” (Duke University, priority 2015, dated 2021)
For some assays here: The name of at least one read-out is uncertain. For some assays here: For at least one compound, name, drawing or mass did not settle the structure.

Chains of the proteins cited; added tags and fusions are not shown. Lines headed by an entry give the natural chain unless they say otherwise; changes in a name come on top.
UniProt Q9UP38: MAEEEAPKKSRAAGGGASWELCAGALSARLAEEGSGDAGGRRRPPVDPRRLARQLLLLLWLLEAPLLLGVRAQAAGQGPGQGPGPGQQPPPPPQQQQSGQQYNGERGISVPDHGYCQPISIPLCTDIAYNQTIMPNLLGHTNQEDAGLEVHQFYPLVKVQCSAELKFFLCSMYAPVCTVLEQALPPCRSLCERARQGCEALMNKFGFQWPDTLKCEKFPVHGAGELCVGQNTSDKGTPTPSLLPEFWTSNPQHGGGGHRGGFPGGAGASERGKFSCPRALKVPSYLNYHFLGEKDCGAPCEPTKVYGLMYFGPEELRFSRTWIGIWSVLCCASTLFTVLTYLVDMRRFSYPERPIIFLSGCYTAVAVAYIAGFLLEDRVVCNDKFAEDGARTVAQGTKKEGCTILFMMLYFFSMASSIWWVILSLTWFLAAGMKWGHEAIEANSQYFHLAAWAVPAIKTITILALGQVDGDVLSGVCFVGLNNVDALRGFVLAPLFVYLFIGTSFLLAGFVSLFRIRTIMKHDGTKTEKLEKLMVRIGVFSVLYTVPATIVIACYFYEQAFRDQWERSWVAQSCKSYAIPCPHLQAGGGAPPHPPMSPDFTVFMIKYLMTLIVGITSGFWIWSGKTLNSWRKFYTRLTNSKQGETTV

Key:
β-catenin = assay: Western blot of cytosolic β-catenin in HCT-116 cells; type: cell-based; conditions: 2.0 μM compound, 18 hours
Experimental: Western blots were performed following a procedure similar to previously published work (Osada, T.; Chen, M. Y.; Yang, X. Y.; Spasojevic, I.; Vandeusen, J. B.; Hsu, D.; Clary, B. M.; Clay, T. M.; Chen, W.; Morse, M. A.; Lyerly, H. K. Cancer Research 2011, 71, 4172). HCT-116 cells were grown to about 80% confluency in poly-D-lysine coated six-well plates 48 hours before treatment and followed by 2.0 μM compounds or DMSO incubation for 18 hours in growth medium. After treatment, the cytosolic fraction was isolated as described (Osada, T.; Chen, M. Y.; Yang, X. Y.; Spasojevic, I.; Vandeusen, J. B.; Hsu, D.; Clary, B. M.; Clay, T. M.; Chen, W.; Morse, M. A.; Lyerly, H. K. Cancer Research 2011, 71, 4172). Immunoblots using antibodies to […] (E-5, Santa Cruz Biotechnology catalog number sc-7963) was used to detect β-catenin protein levels in the cytosol, and immunoblots using antibodies to β-actin (C-4, Santa Cruz Biotechnology, catalog number SC-47778) was used for loading controls.
Inhibition of Wnt signaling was determined by analyzing the reduction of cytosolic β-catenin by Western blot (FIG. 1, 2).

Frizzled1-GFP = molecular target: T1, Frizzled1-GFP (Homo sapiens, UniProt Q9UP38); assay: Frizzled internalization assay (Fzd1-GFP); type: cell-based; design: key: Punctate similar to control=0; trace amount of punctate greater than control=1; moderate=3; strong=5; conditions: 6 hours, 0-5 point scale
T1 construct: expressed in transfected cells
Experimental: The Fzd1-GFP assay was performed following a procedure similar to previously published work (Chen, M. Y.; Wang, J. B.; Lu, J. Y.; Bond, M. C.; Ren, X. R.; Lyerly, H. K.; Barak, L. S.; Chen, W. Biochemistry 2009, 48, 10267). Cells stably expressing Frizzled1-GFP plated in confocal dishes were treated, after 24 hours, with 12.5 μM of test compound or DMSO for 6 hours at 37° C. followed by fixation with 4% paraformaldehyde. The cells were then examined by microscopy using a LSM 510-Meta confocal microscope (Carl Zeiss, Thornwood, N.Y., USA) equipped with 40× and 100× apo chromat objectives. YFP was excited using a 488-nm argon laser line. Images were processed using the LSM software Image Browser (CarlZeiss, Thornwood, N.Y., USA). Plates were read twice in blinded fashion using a 0-5 point scale. ^aPunctate similar to control=0, trace amount of punctate greater than control=1, moderate=3, strong=5.

O=C(Nc1ccc([N+](=O)[O-])cc1Cl)c1cc(Cl)ccc1O [A, 5-chloro-N-(2-chloro-4-nitrophenyl)-2-hydroxybenzamide, reference compound]
Remaining cytosolic β-catenin (β-catenin): 10%

O=c1oc2ccc(Cl)cc2c(=O)n1-c1ccc(C(F)(F)F)cc1 [Compound 74, 6-chloro-3-(4-(trifluoromethyl)phenyl)-2H-benzo[e][1,3]oxazine-2,4(3H)-dione]
Fzd1-GFP internalization @12.5 μM (Frizzled1-GFP): 5
